Reference: US20230165979A1, “COPPER-CONTAINING THERAGNOSTIC COMPOSITIONS AND METHODS OF USE” (Cornell University, priority 2020, published 2023)
Values joined by “and” are separate entries in the source; they are usually repeats but may differ in a detail not shown here. Equal entries are not always repeated. Some results come without the dose or concentration used.

Test: Dosimetry: absorbed dose estimated with OLINDA from mouse biodistribution data
Assay type: in vivo, human
Conditions: for Absorbed Dose / Effective Dose: OLINDA, adult human male
[1] = Target Organ: Urinary Bladder Wall

With `CC12CNCCNCC(NC(=O)CCCC(=O)NCCCC[C@H](NC(=O)CCOCCOCCOCCn3cc(-c4cccc(NC(=O)NCCCC[C@H](NC(=O)N[C@@H](CCC(=O)O)C(=O)O)C(=O)O)c4)nn3)C(=O)N[C@@H](CCCCNC(=O)Cc3ccc(I)cc3)C(=O)O)(CNCCNC1)CNCCNC2.[67Cu+2]` [[^67Cu]Cu-RPS-085] as the compound, how does the “Absorbed Dose” value (Target Organ: Adrenals) read?
Its value is 7.0 mSv/MBq.

What about the “Effective Dose” value (Target Organ: Adrenals) of the same compound?
The value was 18.8 mrem/mCi.

And the “Absorbed Dose” value (Target Organ: Brain)?
The value was 0.0 mSv/MBq.

What about the “Effective Dose” value (Target Organ: Brain) of the same compound?
The value was 0.0111 mrem/mCi.

And the “Absorbed Dose” value (Target Organ: Breasts)?
Its value is 0.3 mSv/MBq.

And the “Effective Dose” value (Target Organ: Breasts)?
The value was 0.732 mrem/mCi.

What about the “Absorbed Dose” value (Target Organ: Gallbladder Wall) of the same compound?
Its value is 4.6 mSv/MBq.

What about the “Effective Dose” value (Target Organ: Gallbladder Wall) of the same compound?
Its value is 12.3 mrem/mCi.

And the “Absorbed Dose” value (Target Organ: Heart Wall)?
The value was 4.6 mSv/MBq.

What about the “Effective Dose” value (Target Organ: Heart Wall) of the same compound?
The value was 12.3 mrem/mCi.

What about the “Effective Dose” value (Target Organ: Kidneys) of the same compound?
Its value is 2390 mrem/mCi.

What about the “Absorbed Dose” value (Target Organ: Kidneys, over 192 h) of the same compound?
Its value is 884 mSv/MBq and 884.3 mSv/MBq.

And the “Absorbed Dose” value (Target Organ: LLI Wall)?
Its value is 64.8 mSv/MBq.

And the “Effective Dose” value (Target Organ: LLI Wall)?
The value was 175 mrem/mCi.

And the “Absorbed Dose” value (Target Organ: Liver)?
Its value is 12.9 mSv/MBq.

What about the “Effective Dose” value (Target Organ: Liver) of the same compound?
The value was 34.9 mrem/mCi.

And the “Absorbed Dose” value (Target Organ: Lungs)?
Its value is 2.6 mSv/MBq.

And the “Effective Dose” value (Target Organ: Lungs)?
Its value is 7.02 mrem/mCi.

And the “Absorbed Dose” value (Target Organ: Muscle)?
Its value is 3.0 mSv/MBq.

What about the “Effective Dose” value (Target Organ: Muscle) of the same compound?
The value was 8.15 mrem/mCi.

And the “Absorbed Dose” value (Target Organ: Osteogenic Cells)?
Its value is 3.4 mSv/MBq.

And the “Effective Dose” value (Target Organ: Osteogenic Cells)?
The value was 9.22 mrem/mCi.

And the “Absorbed Dose” value (Target Organ: Ovaries)?
The value was 1.6 mSv/MBq.

What about the “Effective Dose” value (Target Organ: Ovaries) of the same compound?
The value was 4.45 mrem/mCi.

What about the “Absorbed Dose” value (Target Organ: Pancreas) of the same compound?
Its value is 8.4 mSv/MBq.

And the “Effective Dose” value (Target Organ: Pancreas)?
Its value is 22.7 mrem/mCi.

And the “Absorbed Dose” value (Target Organ: Red Marrow)?
Its value is 2.4 mSv/MBq.

What about the “Effective Dose” value (Target Organ: Red Marrow) of the same compound?
The value was 6.45 mrem/mCi.

What about the “Absorbed Dose” value (Target Organ: Skin) of the same compound?
The value was 2.5 mSv/MBq.

What about the “Effective Dose” value (Target Organ: Skin) of the same compound?
Its value is 6.68 mrem/mCi.

And the “Absorbed Dose” value (Target Organ: Small Intestine)?
The value was 3.3 mSv/MBq.

And the “Effective Dose” value (Target Organ: Small Intestine)?
The value was 8.97 mrem/mCi.

And the “Absorbed Dose” value (Target Organ: Spleen)?
The value was 11.6 mSv/MBq.

What about the “Effective Dose” value (Target Organ: Spleen) of the same compound?
The value was 31.4 mrem/mCi.

And the “Absorbed Dose” value (Target Organ: Stomach Wall)?
The value was 2.7 mSv/MBq.

And the “Effective Dose” value (Target Organ: Stomach Wall)?
The value was 7.3 mrem/mCi.

What about the “Absorbed Dose” value (Target Organ: Thymus) of the same compound?
The value was 0.3 mSv/MBq.

And the “Effective Dose” value (Target Organ: Thymus)?
Its value is 0.757 mrem/mCi.

And the “Absorbed Dose” value (Target Organ: Thyroid)?
The value was 0.1 mSv/MBq.

And the “Effective Dose” value (Target Organ: Thyroid)?
The value was 0.138 mrem/mCi.

And the “Absorbed Dose” value (Target Organ: Total Body (whole body))?
Its value is 14.5 mSv/MBq.

And the “Effective Dose” value (Target Organ: Total Body)?
The value was 39.2 mrem/mCi.

What about the “Effective Dose” value (Target Organ: Tumor) of the same compound?
The value was 38700 mrem/mCi.

And the “Absorbed Dose” value (Target Organ: Tumor, over 192 h)?
The value was 14319 mSv/MBq and 14319.0 mSv/MBq.

What about the “Absorbed Dose” value (Target Organ: ULI Wall) of the same compound?
The value was 22.1 mSv/MBq.

And the “Effective Dose” value (Target Organ: ULI Wall)?
Its value is 59.7 mrem/mCi.

What about the “Absorbed Dose” value [1] of the same compound?
Its value is 8.0 mSv/MBq.

And the “Effective Dose” value [1]?
The value was 21.7 mrem/mCi.

What about the “Absorbed Dose” value (Target Organ: Uterus) of the same compound?
Its value is 1.0 mSv/MBq.

And the “Effective Dose” value (Target Organ: Uterus)?
Its value is 2.8 mrem/mCi.

What about the “reduction in whole body absorbed dose relative to [177Lu]Lu-RPS-063” value (in vivo) of the same compound?
The value was 5 fold.

And the “absorbed dose in any other tissue (not tumor, kidneys)” value (over 192 h)?
The value was at most 65 mSv/MBq.
